{"source": "PubChem BioAssay AID588463", "about": "(National Center for Advancing Translational Sciences (NCATS), 2011)", "note": "Out of some 1,200 compounds screened, about 15 (1%) were called active. Another 7% or so got no clear call; they are omitted. Calls come from the whole dose curve; as a rule, active = well fitted activation curve with a large enough effect; inconclusive = small, poorly fitted or top-dose-only effect; inactive = flat fitted curve, though single readings scatter. The list shows a part of the results. Potency is the fitted concentration of half-maximal effect.", "data": [{"target": "Beta-2 adrenergic receptor (Homo sapiens) (UniProt P07550)", "assay": "qHTS assay of beta-arrestin-biased ligands of beta2-adrenergic receptor: Hit Validation;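 for activation: plate controls were DMSO for no effect and maximal isoproterenol or metaproterenol response for full effect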", "settings": "cell-based beta-arrestin recruitment to beta2AR; Potency: activation; series mostly up to 46.1 µM; activation: at the top concentration", "excerpt": "The concept of biased agonism is an emerging concept of molecular pharmacology which proposes that seven transmembrane receptors (7TMRs) or G protein-coupled receptors (GPCRs), exist in multiple signaling conformations and complexes and that ligands (either agonists or antagonists) can induce signaling biased responses for distinct signal transduction cascades.\nFurthermore, accumulating evidence over the last decade has drawn attention to a novel function of beta-arrestins as signal transducers that scaffold various signaling molecules upon activation of 7TMRs. […] This beta-arrestin-biased signaling presumably leads to distinct physiological outcomes from those by G protein activation.\nAdditionally, the active receptor conformations which […] on this beta-arrestin signaling are likely different from those activating G protein signaling\nThe goal of this screening project will be to discover and optimize novel beta-arrestin-biased ligands for beta2-AR signaling. A luminescent cell-based assay for beta2-AR-mediated agonism, known as the Tango assay, has been validated in which ligand binding of a recombinant beta2-AR and subsequent recruitment of a recombinant beta-arrestin lead to the release of the transcriptional activator tTA, which upregulates transcription of a tTA-responsive luciferase gene.\nNIH Molecular Libraries Probe Production Network [MLPCN]\nNIH Chemical Genomics Center [NCGC]\nPI: Bryan Roth (UNC) and Bob Lefkowitz (Duke)\nNCGC Assay Protocol Summary:\nTango cells were dispensed into white, solid, tissue-culture-treated 1536-well plates at 1500 cells/well in DMEM, containing 1% fetal bovine serum (FBS). Then, 23 nL of compounds or DMSO were delivered to each well using a pin tool. Plates were incubated at 37 degrees C, 5% CO2 for 18 hr. Then 2.5 uL luminescent substrate mix (in-house prepared: 150 mM Tris-Cl, pH 7.6, 3 mM MgCl2, 1% Triton X-100, 5 mM DTT, 0.5 mM CoA, 0.15 mM ATP, 0.44 mM D-luciferin, final concentrations) was added to each well. Plates were then incubated for 15 minutes at room temperature, and subsequently measured on a ViewLux plate reader for luminescent signal using a clear filter with a 10 second exposure and 2x binning. The %Activity was determined from the corrected luminescence values.\nConcentration-response curves were fitted to the signals arising from the resulting luminescence. The concentration-effect curves were then classified based on curve quality (r2), response magnitude and degree of measured activity, and compounds were subsequently categorized based on their curve class.\nKeywords: biased agonism, beta2-AR, beta-arrestin, GPCR, 7TMR, Tango, luminescence, MLSMR, MLPCN, NIH Roadmap, qHTS, NCGC", "values": [{"smiles": "CCN(CC)S(=O)(=O)c1ccc(N/N=C(\\C)c2ccc(OC)cc2O)nc1", "activation": "inactive: -0.771%"}, {"smiles": "CCc1ccccc1NC(=S)N=Nc1c(O)n(C)c2ccc(S(=O)(=O)N3CCOCC3)cc12", "activation": "inactive: -1.71%"}, {"smiles": "Cc1ccc(OCc2nnc(SC3CCc4ccccc4C3=O)n2C)cc1", "note": "(configuration not stated)", "activation": "inactive: -3.08%"}, {"smiles": "Cc1cc([N+](=O)[O-])ccc1NC(=O)CCC(=O)N1CCCCCC1", "activation": "inactive: -3.62%"}, {"smiles": "O=C(Nc1nccs1)c1ccc2ccccc2n1", "activation": "inactive: -2.82%"}, {"smiles": "CCc1n[nH]c(=S)n1/N=C/c1ccc(N(CC)CC)cc1", "activation": "inactive: -2.67%"}, {"smiles": "COC(=O)c1ccc(CSc2cc(C)c3ccccc3n2)o1", "activation": "inactive: -4.03%"}, {"smiles": "NC(=S)N=Nc1c(O)n(CCCl)c2ccccc12", "activation": "inactive: -3.25%"}, {"smiles": "O=C1C=CC(O)(c2cc(=O)c3c(O)cc(O)cc3o2)C=C1", "activation": "inactive: -3.11%"}, {"smiles": "O=C(/C=C\\c1ccccc1)Oc1cccc2cccnc12", "activation": "inactive: -1.19%"}, {"smiles": "O=C(NC1CCCCC1)N(Cc1cc2cc3c(cc2[nH]c1=O)OCCO3)CC1CCCO1", "note": "(configuration not stated)", "activation": "inactive: -1.51%"}, {"smiles": "C/C(=N/NC(=O)c1ccoc1C)c1ccc(NC(=O)C2CCCC2)cc1", "activation": "inactive: -2.13%"}, {"smiles": "CCCC(=O)Nc1ccc(Nc2ccccc2)cc1", "activation": "inactive: -1.72%"}, {"smiles": "CCOc1ccc(/C=N/NC(=O)Cc2csc(Nc3cccc(C(F)(F)F)c3)n2)c(OCC)c1", "activation": "inactive: 4.88%"}, {"smiles": "Nc1ccc(OC(=O)Nc2ccc(O)cc2)cc1", "activation": "inactive: -3.3%"}, {"smiles": "COc1ccc(C(=O)N/N=C/C(Br)=C/c2ccccc2)cc1", "activation": "inactive: -3.41%"}, {"smiles": "Cc1ccc(NC(=S)NC(NC(=O)c2ccccc2)C(Cl)(Cl)Cl)c(C)c1", "note": "(configuration not stated)", "activation": "inactive: 5.97%"}, {"smiles": "O=C(Nc1ccccc1)N1CCCC(c2nc(-c3cccs3)no2)C1", "note": "(configuration not stated)", "activation": "inactive: -3.47%"}, {"smiles": "O=C(NC(=S)Nc1ccccn1)c1ccccc1", "activation": "inactive: -1.67%"}, {"smiles": "CC(C)c1ccccc1-n1c(SCC(=O)N2CCc3ccccc3C2)nc2ccccc2c1=O", "activation": "inactive: 0.217%"}, {"smiles": "COc1ccc(N2C(=O)C3C(C2=O)C(C(=O)c2ccccc2)N2CCCC32)cc1", "note": "(configuration not stated)", "activation": "inactive: -0.0662%"}, {"smiles": "O=C(CCCCn1c(=O)[nH]c2ccsc2c1=O)NCC1CCCO1", "note": "(configuration not stated)", "activation": "inactive: -3.14%"}, {"smiles": "Cc1cs/c(=N\\N=C2CCCCC2)n1Cc1ccco1", "activation": "inactive: 0.204%"}, {"smiles": "C=CCNc1nc(Cl)nc(NC2CCCCC2)n1", "activation": "inactive: 3.6%"}, {"smiles": "COc1ccc(OC)c(S(=O)(=O)N/N=C(/C)c2c[nH]c3ccccc23)c1", "activation": "inactive: -2.33%"}, {"smiles": "Cc1ccc(-c2ccc(/C=N/NC(N)=S)o2)cc1", "activation": "inactive: -2.59%"}, {"smiles": "Cc1cc(C)cc(NC(=O)CC23CC4CC(C2)CC(n2nnc(C)n2)(C4)C3)c1", "activation": "inactive: -2.29%"}, {"smiles": "COc1ccc(NC(=S)N/N=C/c2ccc(F)cc2)cc1OC", "activation": "inactive: -1.69%"}, {"smiles": "COc1ccc(OC)c(C(=O)CSc2nnc(Cc3cccs3)n2C)c1", "activation": "inactive: -2.89%"}, {"smiles": "C=C(C)CNC(=S)N/N=C/c1ccco1", "activation": "inactive: -3.63%"}, {"smiles": "S=c1[nH]nc(-c2ccco2)n1/N=C/C(Cl)=C/c1ccccc1", "activation": "inactive: 0.611%"}, {"smiles": "CCCCN(CC)CCNC(=S)Nc1ccc2nc(N3CCN(C)CC3)cc(C)c2c1", "activation": "inactive: -0.517%"}, {"smiles": "COc1cc(CN(C2CCCCC2)S(=O)(=O)c2ccc(S(=O)(=O)N(C)C3CCCCC3)cc2)cc(OC)c1OC", "activation": "inactive: -2.71%"}, {"smiles": "COc1ccc2nc(/N=C/c3c(C)[nH]n(-c4ccc(C)cc4C)c3=O)sc2c1", "activation": "inactive: -1.66%"}, {"smiles": "O=C1C2C(C(=O)N1/N=C/c1ccc([N+](=O)[O-])o1)C1C=CC2C12CC2", "note": "(configuration not stated)", "activation": "inactive: 4.77%"}, {"smiles": "C/C(=N\\NC(=S)NC1CCCCC1)c1ccc(C)o1", "activation": "inactive: -1.03%"}, {"smiles": "CC(C)Oc1ccc(/C=N/NC(N)=S)cc1", "activation": "inactive: -1.48%"}, {"smiles": "O=C1c2ccccc2C(=O)N1CCC(c1ccc(F)cc1)c1ccco1", "note": "(configuration not stated)", "activation": "inactive: 0.249%"}, {"smiles": "O=S(=O)(N1CCOCC1)N1CCOCC1", "activation": "inactive: -3.06%"}, {"smiles": "CCCCn1c(SCC(=O)NC2CCCC2)nnc1-c1ccco1", "activation": "inactive: -5.63%"}, {"smiles": "COC(=O)c1c(NC(=O)CN2CCC3(O)CCCCC3C2c2ccc(F)cc2)sc(C)c1C", "note": "(configuration not stated)", "activation": "inactive: -0.0028%"}, {"smiles": "C(=N\\Nc1ncnc2ccccc12)/c1ccccc1", "activation": "inactive: -2.43%"}, {"smiles": "CC(=O)Oc1ccc2cc(-c3ccccc3)c(=O)oc2c1", "activation": "inactive: -2.83%"}, {"smiles": "COc1cccc(/C=N/NC(=O)c2cc(-c3cccn3C)n[nH]2)c1O", "activation": "inactive: -2.59%"}, {"smiles": "CC1C/C(=N\\NC(=S)NCc2ccccc2)CC(C)(C)C1", "note": "(configuration not stated)", "activation": "inactive: -2.9%"}, {"smiles": "O=C(NC(=S)Nc1cccc(NC(=S)NC(=O)c2ccco2)n1)c1ccco1", "activation": "inactive: -4.64%"}, {"smiles": "FC(F)(F)c1nc2ccccc2nc1N/N=C\\c1ccccc1", "activation": "inactive: -2.93%"}, {"smiles": "CCn1nnc(NC(=S)NC(=O)c2ccc(-c3cccc(Cl)c3)o2)n1", "activation": "inactive: -2.96%"}, {"smiles": "CCNS(=O)(=O)c1ccc(NC(=O)c2ccccc2SCCOC)cc1", "activation": "inactive: 0.717%"}, {"smiles": "Oc1[nH]c(N=C2N=c3ccccc3=N2)c2ccccc12", "activation": "inactive: -2.42%"}, {"smiles": "CC(C)NS(=O)(=O)c1ccc(NC(=O)C(C)Oc2ccc(C(=O)c3ccccc3)cc2)cc1", "note": "(configuration not stated)", "activation": "inactive: 0.57%"}, {"smiles": "S=C(Nc1ccccn1)NC1CCCC1", "activation": "inactive: -0.402%"}, {"smiles": "CC1(C)CC(=O)C(C2=NC3(CCCCCC3)Cc3ccccc32)=C(O)C1", "activation": "inactive: -4.3%"}, {"smiles": "CCSc1nnc(NC(=O)c2ccc3ccccc3n2)s1", "activation": "inactive: -4.1%"}, {"smiles": "CCC(NC(C)C)C(O)c1ccc(O)c2[nH]c(=O)ccc12", "note": "(configuration not stated)", "Potency": "active: 0.0164 µM"}, {"smiles": "O=C(/C=C(O)/C=C/c1ccc(O)cc1)/C=C/c1ccc(O)cc1", "activation": "inactive: -0.266%"}, {"smiles": "CCC(=O)Nc1cccc(-c2nnc(SCC(=O)c3ccccc3)n2C)c1", "activation": "inactive: -3.27%"}]}]}
